Some of the results follow. Hit calls seldom repeat between salt and free forms of one compound.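 Kinases were expressed as nanoluciferase fusions in K562 cells and luminescence was read every 4 h between 2 and 18 h as percent of control, DMSO set to 100% and a positive control to 0%. A time point counts as decreased when the signal drops significantly (2 sigma). The hit call is the authors' own, does not follow from the count of time points alone, and its rule is not shown.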
Each compound was assayed against PBK (UniProt Q96KB5) (assay: number of time points (of 5) at which kinase-Nluc abundance scored as decreased, DMSO-normalised (count); higher = more persistent destabilization). Conditions: K562; 2-18 h.

The chains behind the UniProt entries cited, without tags or fusion partners. Where a name states a change or a piece, a line headed by the entry shows the natural chain unless it says otherwise.
UniProt Q96KB5: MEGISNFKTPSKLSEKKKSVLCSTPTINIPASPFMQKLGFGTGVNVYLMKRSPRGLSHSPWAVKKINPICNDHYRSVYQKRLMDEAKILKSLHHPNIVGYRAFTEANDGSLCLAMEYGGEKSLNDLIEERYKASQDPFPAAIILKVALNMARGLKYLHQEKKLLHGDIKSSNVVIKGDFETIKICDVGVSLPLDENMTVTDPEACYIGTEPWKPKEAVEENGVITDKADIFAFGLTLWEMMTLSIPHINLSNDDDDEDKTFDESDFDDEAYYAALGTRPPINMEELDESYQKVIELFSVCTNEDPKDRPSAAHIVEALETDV

Row | SMILES | number of time points
1 | O=Nc1c(-c2c(O)[nH]c3cc(Br)ccc23)[nH]c2ccccc12 [GSK 3 Inhibitor IX] (2.5 µM) | 0
2 | Cn1c2cc([S+](C)[O-])sc2c2cnn(Cc3cccc(N)c3)c(=O)c21 (stereo not drawn) (2.5 µM) | 0
3 | Cc1cc(-n2c(=O)ccc3c[nH]c4nccc-4c32)ccc1F (10 µM) | 0
4 | CCCn1/c(=N/C(=O)c2cccc(C(N)=O)c2)[nH]c2ccccc21 [Takinib] (10 µM) | 0
5 | CO[C@H]1C[C@@H]2CC[C@@H](C)[C@@](O)(O2)C(=O)C(=O)N2CCCC[C@H]2C(=O)O[C@H]([C@H](C)C[C@@H]2CC[C@@H](OCCO)[C@H](OC)C2)CC(=O)[C@H](C)/C=C(\C)[C@@H](O)[C@@H](OC)C(=O)[C@H](C)C[C@H](C)/C=C/C=C/C=C/1C [Everolimus] (10 µM) | 0
6 | Cc1cccc(-c2[nH]ncc2-c2ccnc3ccccc23)n1 (10 µM) | 0
7 | CC1(N)CCN(c2cccnc2NC(=O)c2nc(-c3ncccc3C(F)(F)F)cnc2N)CC1 [Darovasertib] (10 µM) | 0
8 | COc1cc2c(cc1Nc1ncc(C(N)=O)c(Nc3c(F)cccc3C(F)(F)F)n1)CN(C)CC2 (2.5 µM) | 0
9 | COc1cc2ncnc(Nc3ccc(O)c(Br)c3)c2cc1OC (10 µM) | 0
10 | Nc1nc2c(nc(Br)n2[C@@H]2O[C@@H]3COP(=O)(O)O[C@H]3[C@H]2O)c(=O)[nH]1 [8-Bromo-cGMP (sodium)] (10 µM) | 0
11 | O=c1c2c([nH]n1-c1nc3ccccc3s1)CCCC2 (10 µM) | 0
12 | COC(=O)Nc1ccc(-c2nc(N3CCOCC3)c3cnn(C4CCN(Cc5cccnc5)CC4)c3n2)cc1 (10 µM) | 0
13 | N[C@@H]1CCCN(c2c(/C=C3\SC(=O)NC3=O)cccc2-c2ccccc2)C1 (10 µM) | 0
14 | Nc1nc(N)c2nc(-c3cccc(O)c3)c(-c3cccc(O)c3)nc2n1 (10 µM) | 0
15 | Cn1ncc(NC(=O)c2nc(-c3c(F)cccc3F)sc2N)c1N1CC[C@@H](N)[C@H](F)CC1 (10 µM) | 0
16 | C=C1C(=O)[C@@]23[C@H](O)C[C@@H]4C(C)(C)C(=O)CC[C@@]4(C)[C@@H]2CC[C@@H]1[C@H]3O [Glaucocalyxin A] (2.5 µM) | 0
17 | O=C(NCCO)c1cc(C(=O)NCCO)cc(C(=O)NCCO)c1 (10 µM) | 0
18 | CCC(=O)Nc1cccc(Oc2nc(Nc3ccc(N4CCN(C)CC4)cc3OC)ncc2Cl)c1 (10 µM) | 0
19 | Cc1nn(C)cc1-c1nc2c(N3CCN(Cc4ccc(Cl)cc4)CC3)c(Cl)cnc2[nH]1 (10 µM) | 0

Arranged by molecular weight (falling): part of the list above.
Row | SMILES | number of time points
18 | CCC(=O)Nc1cccc(Oc2nc(Nc3ccc(N4CCN(C)CC4)cc3OC)ncc2Cl)c1 (10 µM) | 0
4 | CCCn1/c(=N/C(=O)c2cccc(C(N)=O)c2)[nH]c2ccccc21 [Takinib] (10 µM) | 0
3 | Cc1cc(-n2c(=O)ccc3c[nH]c4nccc-4c32)ccc1F (10 µM) | 0

Later entries.

Row | SMILES | number of time points
20 | CC(C)Oc1ccc(F)c(-c2cnc(N)c(C(=O)Nc3cnccc3N3CCC[C@@H](C(=O)O)C3)n2)c1 (2 µM) | 0
21 | Nc1ncc(C(=O)NC2CN(C(=O)C3CC3)C2)c2ccc(-c3cccc(F)c3)nc12 (2 µM) | 0
22 | O=C(ON=C1c2ccccc2-c2nc3ccccc3nc21)c1ccco1 (2.5 µM) | 0
23 | CC(C)=CC[C@@H](O)C1=CC(=O)c2c(O)ccc(O)c2C1=O [Shikonin] (10 µM) | 0
24 | COC(=O)Nc1ccc(-c2nc(N3CCOCC3)c3cnn(C4CCN(C(=O)OC)CC4)c3n2)cc1 (10 µM) | 0
25 | CNC(=O)c1ccc2c(c1)ncn2-c1ccc(CC(=O)OC(C)(C)C)cc1 (10 µM) | 0
26 | O=C1CC[C@H](NC(=O)Cc2ccccc2)C(=O)N1 [Antineoplaston A10] (10 µM) | 0
27 | COCCOCCc1c(C)c2cc(OC)c(O)c(C=O)c2oc1=O (10 µM) | 0
28 | Cc1ccc(C(=O)NC2CC2)cc1-n1ncc(C(=O)c2cccc(C#N)c2)c1N [Acumapimod] (10 µM) | 0
29 | O=C(NCCN1CCOCC1)Nc1nc2ccc(Sc3nnc4ccc(-c5ccc(F)cc5)nn34)cc2s1 (10 µM) | 0
30 | COc1cc(F)ccc1-c1ncnc(Nc2cccc(C[S@](C)(=N)=O)c2)n1 [Atuveciclib] (2.5 µM) | 0
31 | CCn1c(-c2nonc2N)nc2c(C#CC(C)(C)O)ncc(OC[C@H]3CCCNC3)c21 (10 µM) | 0
32 | O=c1[nH]ccc2nc(-c3ccc(CN4CCC(c5nc(-c6ccccn6)n[nH]5)CC4)cc3)c(-c3ccccc3)cc12 (10 µM) | 0
33 | COCCOc1ccc2c(c1)ncn2-c1ccc2cccc(N3CCC(N)CC3)c2n1 (10 µM) | 0
34 | CN1CCC(CNc2ccc3ncc(-c4cccc(OC(F)(F)F)c4)n3n2)CC1 (2.5 µM) | 0
35 | Cc1cc(C(=O)NC(C)(C)C)cc(C#Cc2ccc3c4c(oc3c2)C(C)(C)c2cc(NS(C)(=O)=O)ccc2C4=O)n1 (10 µM) | 0
36 | CC(O)(C#Cc1ccc2c(c1)N(c1nc(N)ncc1Cl)CC2)c1nccs1 (stereo not drawn) (2.5 µM) | 0
37 | COc1cc(-c2cc(-c3ccc(N4CCNCC4)cc3)cnc2C)cc(OC)c1OC (10 µM) | 0
38 | Cn1c(CNc2cccc(C(=O)NCc3ccccc3C(F)(F)F)c2)nnc1-c1ccncc1 (10 µM) | 0

Reference: the supplement of paper PMC12823440, “Inhibitors supercharge kinase turnover through native proteolytic circuits” (Nature, 2025)
